This note sets out measurements from patent US20050148627A1 (priority 2003, published 2005).

By UniProt entry, the sequences of proteins in these tests, tags left out. Residues count along the entry.
UniProt P35354, 18-604 limits assumed: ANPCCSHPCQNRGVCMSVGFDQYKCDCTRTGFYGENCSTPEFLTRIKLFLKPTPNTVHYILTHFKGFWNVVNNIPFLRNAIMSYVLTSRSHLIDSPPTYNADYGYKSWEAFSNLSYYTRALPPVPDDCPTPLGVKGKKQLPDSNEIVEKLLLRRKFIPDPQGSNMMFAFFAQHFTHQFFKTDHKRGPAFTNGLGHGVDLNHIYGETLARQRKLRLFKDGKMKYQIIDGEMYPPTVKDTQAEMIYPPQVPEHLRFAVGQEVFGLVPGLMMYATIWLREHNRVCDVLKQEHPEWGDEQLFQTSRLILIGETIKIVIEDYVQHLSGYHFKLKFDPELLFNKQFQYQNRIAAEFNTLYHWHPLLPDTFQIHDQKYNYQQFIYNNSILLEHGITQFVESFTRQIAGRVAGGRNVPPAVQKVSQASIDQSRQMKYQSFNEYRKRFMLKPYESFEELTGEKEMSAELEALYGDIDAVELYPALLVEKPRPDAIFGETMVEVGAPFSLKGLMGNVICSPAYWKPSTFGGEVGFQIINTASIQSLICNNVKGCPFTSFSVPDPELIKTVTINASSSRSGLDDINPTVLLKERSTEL

For orientation: IC50 means the concentration needed to halve the response being measured.

The match of structure and compound is tentative.

The target in assay [1] is T1, COX-2 (Homo sapiens, UniProt P35354). In words: Assay for COX-1 and COX-2 Activity (PGE2 ELISA): COX-2. As to conditions: read-out: hCox-2 IC50; human COX-2; standard assay. A general note: ELISA stands for enzyme-linked immunosorbent assay.
Assay [2] concerns the target T1, COX-2. In words: Modified Assay for COX-1 and COX-2 Activity (PGE2 ELISA): COX-2. As to conditions: read-out: hCox-2 Modified IC50, human COX-2.

For `COc1cc2c(cc1-c1ccc(SC)cc1)C=C(C(=O)O)C(C(F)(F)F)O2` (stereo not shown), the IC50 on COX-2 [1] worked out at 9 µM; at COX-2 [2], 10.2 µM.

Regarding `CC(C)(c1ccccc1)c1ccc(Oc2cc3c(cc2Cl)C=C(C(=O)O)C(C(F)(F)F)O3)cc1` (stereo not shown), the IC50 was 8.9 µM at COX-2 [1] and 3.16 µM on COX-2 [2].
